This is one part of the list. These are further read-outs of the screen, such as a control signal, another cell line or another target. No call is given for them. Compounds called inactive in the main read-out are mostly missing here. The note in brackets gives the kind of curve behind each potency; many fits are weak.
Test: qHTS Assay to Find Inhibitors of Chronic Active B-Cell Receptor Signaling
Settings: ABC-DLBCL IkBa-CBG/CBR reporter, luminescence ratio (green luciferase fused to IkBa over red control in TMD8 lymphoma cells), 4 h
Outline: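 Compounds up to 46 uM were incubated four hours with TMD8 cells whose green CBG68 luciferase is fused to IkappaBalpha; red CBR luminescence normalised the signal, and concentration-effect curves were fitted to fusion, red and ratio data.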

[1] = measured here: CBR red luminescence, cell number
[2] = measured here: IkBa-CBG green luminescence

SMILES	AC50 [1]	AC50 [2]
O=C(N/N=C/c1ccsc1)c1cc(-c2ccncc2)nc2ccccc12	20.6 µM [rising, partial curve, poor fit]	16.4 µM [falling, single point]
O=C1C2C(c3ccccc3)C=CC(c3ccccc3)C2C(=O)N1C1CCCCC1 (configuration not stated)	2.91 µM [rising, single point]	–
FC(F)(F)c1nnc(-c2ccccc2)nc1Sc1ccccc1	35.5 µM [falling, single point]	–
COc1cccc(Nc2ccc(Nc3cccc(OC)c3)nn2)c1	1.64 µM [falling, full curve]	23.1 µM [rising, partial curve, poor fit]
COc1ccc(NC(=O)COC(=O)CNC(=O)c2cccs2)cc1Cl	29.1 µM [rising, single point]	–
Cc1ccc(/C=N/NC(=O)c2csc(C)c2)o1	20.6 µM [falling, partial curve, poor fit]	–
NS(=O)(=O)c1ccc(NC(=O)COC(=O)c2ccc([N+](=O)[O-])s2)cc1	35.5 µM [falling, single point]	–
COC(=O)c1sccc1-c1ccc(C(=O)Nc2cccc(Cl)c2)o1	0.891 µM [falling, partial curve, poor fit]	–
Cc1cccc(NC(=S)N(Cc2cccc(Br)c2)CC2CCC(C(=O)O)CC2)c1 (configuration not stated)	35.5 µM [falling, single point]	12.6 µM [rising, partial curve, poor fit]
CCCC(=O)N1CCC(O)(c2cccc(F)c2)CC1	14.1 µM [rising, single point]	–
CC(C)Oc1ccc(CNC(=O)CCC(=O)N2CC(C)Sc3ccccc32)cc1 (configuration not stated)	35.5 µM [falling, partial curve, poor fit]	–
CC(Oc1ccc(-c2nccc(-c3ccccn3)n2)cc1)C(=O)NN (configuration not stated)	15.8 µM [falling, partial curve, poor fit]	–
Cc1ccccc1-c1cc(C(=O)NCC2CC2)nn1CC1CC(c2cccc([N+](=O)[O-])c2)=NO1 (configuration not stated)	29.1 µM [falling, single point]	–
CCCc1nnc(NC(=O)c2cccnc2)s1	11.2 µM [falling, single point]	–
COc1ccc(/C=N/NC(=O)c2ccc3nc[nH]c3c2)c(OC)c1OC	0.794 µM [falling, full curve, poor fit]	–
CC(C(=O)O)N1c2cccc3cccc(c23)S1(=O)=O (configuration not stated)	7.08 µM [rising, partial curve, poor fit]	–
Cc1ccc(NC(=O)/C(C#N)=C/c2cccs2)c(C)c1	29.1 µM [rising, single point]	–
COc1ccc(NC(=O)Nc2cccc3c2O[C@H](CN(C)C(=O)Nc2ccc4c(c2)OCO4)[C@@H](C)CN([C@H](C)CO)C3=O)cc1	6.51 µM [rising, single point]	–
NC1=NC[C@H](c2ccccc2)N1CCc1cccc(F)c1	1.12 µM [rising, full curve, poor fit]	–
CC(C)CC1(C(=O)NCc2cc(F)cc(C(F)(F)F)c2)C=CCN1C(=O)c1ccccc1 (configuration not stated)	2.31 µM [falling, full curve, poor fit]	–
Cc1cccc(OCC(=O)Nc2cc(NC(=O)COc3cccc(C)c3C)cc(C(=O)O)c2)c1C	0.1 µM [rising, full curve, poor fit]	–

SMILES	AC50 [1]	AC50 [2]
O=C(Nc1cccc(NC(=O)c2ccc([N+](=O)[O-])o2)c1)c1ccco1	10 µM [falling, partial curve, poor fit]	–
Cc1c(C(=O)NCCN2C(=O)S/C(=C\c3cccnc3)C2=O)cccc1[N+](=O)[O-]	10 µM [falling, partial curve]	–
Cc1ccc2nc(NC(=O)C3CCN(S(=O)(=O)c4cccc5nsnc45)CC3)sc2c1	5.17 µM [falling, full curve]	–
C#CCNC(=O)C1=C[C@@H](c2csc3ccccc23)[C@H](CCCO)[C@@H](OCC)O1	6.31 µM [rising, single point]	–
COc1ccc(NC(=O)Nc2ccc(Br)c(C)c2)cc1	2.51 µM [rising, full curve, poor fit]	–
CC/C(=N\Nc1ccc([N+](=O)[O-])cc1)c1ccccc1	11.2 µM [falling, partial curve, poor fit]	–
COc1ccc(NC(=O)Nc2ccc3nonc3c2)cc1	14.1 µM [falling, single point]	–
CN(C)/C=N/c1ncnc2c1cnn2-c1ccc(C(F)(F)F)cn1	5.8 µM [rising, full curve]	–
CCSc1nnc(NC(=O)CSc2nnc(C)c(=O)n2N)s1	35.5 µM [falling, single point]	–
Nc1ccccc1C(=O)N1O[C@@H]2C=C[C@H]1CC2	9.2 µM [rising, partial curve, poor fit]	–
O=C(CC1CC2CCC1C2)OCC(=O)c1c[nH]c2ccccc12 (configuration not stated)	3.98 µM [rising, single point]	–
O=C(Nc1ccccc1)Oc1ccc[nH]c1=O	22.4 µM [rising, single point]	–
Cc1c(Cc2ccc3c(c2)OCO3)sc(NC(=O)c2ccc3ccccc3c2)c1C(N)=O	29.1 µM [rising, single point]	–
COc1ccc(C(CCN(Cc2ccc(OC)c(OC)c2)C(=O)CCl)c2ccccc2)cc1 (configuration not stated)	14.6 µM [falling, partial curve, poor fit]	–
COC(=O)c1ccccc1-c1c2ccc(=N)cc-2oc2cc(N)ccc12	13 µM [rising, partial curve, poor fit]	–
O=c1c(S(=O)(=O)c2ccc(Cl)cc2)cn(Cc2cccc(F)c2)c2ccc(F)cc12	0.82 µM [falling, full curve, poor fit]	–
CC(=O)Nc1ccc(N=NC2C(=O)N(C(N)=S)N=C2C)cc1 (configuration not stated)	31.6 µM [rising, single point]	–
COC(=O)C1=C(C)N(Cc2ccccc2)C(=NCCCCO)N[C@H]1CCc1ccccc1	35.5 µM [falling, single point]	–
CCOC(=O)COc1cccc2c(=O)n(CC(=O)NCc3ccc(F)cc3)ccc12	7.94 µM [rising, partial curve, poor fit]	5.01 µM [falling, partial curve]
c1nc(NCc2ccc3c(c2)OCO3)c2cc(-c3ccoc3)ccc2n1	16.4 µM [falling, single point]	–
O=C(COC(=O)c1ccccc1)Nc1ncc([N+](=O)[O-])s1	18.4 µM [falling, single point]	–

SMILES	AC50 [1]	AC50 [2]
O=C(Nc1ccc(Br)cc1F)c1sccc1-n1cccc1	7.08 µM [rising, partial curve]	–
CCOC(=O)CCCn1nc(C)n2c(cc3sccc32)c1=O	7.31 µM [falling, partial curve, poor fit]	–
Oc1ccccc1-c1nnc(SCCN2CCOCC2)n1Cc1ccccc1	35.5 µM [falling, single point]	–
Cc1cc(-c2ccccc2)nc2oc3c(c12)NC(=O)CN(c1ccccc1)C3=O	1.26 µM [rising, full curve]	–
COc1ccc(Cc2nnc(NC(=O)c3cc(OC)c(OC)c(OC)c3)s2)cc1	10 µM [rising, partial curve, poor fit]	12.6 µM [falling, partial curve, poor fit]
COc1cc(/C=N/NS(=O)(=O)c2ccc(C)cc2)ccc1OCc1cccc(C(=O)O)c1	5.01 µM [falling, partial curve]	–
S=C(NCCc1ccccn1)Nc1ccccc1	15.8 µM [falling, single point]	–
COc1ccccc1CCNC(=O)c1ccc(Br)s1	12.6 µM [falling, single point]	–
O=C(CCCN1C(=O)S/C(=C/c2ccccc2)C1=S)Nc1ccc(C(=O)O)cc1	1.41 µM [falling, partial curve, poor fit]	–
CCC(C)NS(=O)(=O)c1ccc(NC(C)=O)cc1 (configuration not stated)	20.6 µM [rising, single point]	–
CC(=O)[C@@H]1[C@@H]2C(=O)N(C3CCCCC3)C(=O)[C@@H]2C2c3ccccc3C=CN21 (some centres not stated)	1.58 µM [falling, partial curve, poor fit]	–
Cc1ccc(C(=O)N[C@@H](C)CN2C3=NC[C@H](C)N3C[C@H]2Cc2ccc(O)cc2)cc1Br	6.31 µM [rising, single point]	–
COc1ccc(C2CC(=O)Oc3cc(OC)ccc32)cc1 (configuration not stated)	29.1 µM [rising, single point]	–
Cc1cccc(C)c1OCc1nnc(SCC(=O)Nc2nccs2)o1	–	23.1 µM [falling, single point]
CCNc1ccc(C(=O)OCC)cc1NC(=O)c1cccc(N(C)C)c1	35.5 µM [rising, single point]	20 µM [falling, single point]
CCCC(=O)OCC(=O)Nc1ccc(N=Nc2ccccc2)cc1	5.17 µM [rising, full curve, poor fit]	–
C/C(=N\NC(=S)Nc1cccc(C)c1)c1cccc(N)c1	0.517 µM [rising, single point]	–
c1ccc(-n2ncc3c(NCc4ccco4)ncnc32)cc1	7.31 µM [falling, partial curve]	–
COc1ccc(/C=N/c2c(-c3ccc(OC)cc3)nc3n2CCS3)cc1	32.6 µM [rising, partial curve, poor fit]	–

Part of the list above in another layout:
Cc1cc(-c2ccccc2)nc2oc3c(c12)NC(=O)CN(c1ccccc1)C3=O
  AC50 [1]: 1.26 µM [rising, full curve]
COc1ccc(Cc2nnc(NC(=O)c3cc(OC)c(OC)c(OC)c3)s2)cc1
  AC50 [1]: 10 µM [rising, partial curve, poor fit]; AC50 [2]: 12.6 µM [falling, partial curve, poor fit]
COc1cc(/C=N/NS(=O)(=O)c2ccc(C)cc2)ccc1OCc1cccc(C(=O)O)c1
  AC50 [1]: 5.01 µM [falling, partial curve]
S=C(NCCc1ccccn1)Nc1ccccc1
  AC50 [1]: 15.8 µM [falling, single point]

From PubChem BioAssay AID493014 (National Center for Advancing Translational Sciences (NCATS), 2011)
